PubChem BioAssay AID1259254, NCATS, 2017

- Assay: 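Gene knock-downs that lead to re-replication, shown by excess G2 DNA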 (primary screen)
- Cell system: human HCT116 colorectal cancer cells
- Knock-down reagent: single siRNA against human genes
- Timing: 3 days
- Measured: 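Nuclei stained with Hoechst and imaged; cell-cycle phase assigned by DNA content; G2 share scaled per plate, non-targeting siRNA 0%, GMNN siRNA 100%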
- Direction: G2 robust z-score and G2 cells, % of GMNN control: higher = more G2 cells, more excess DNA replication; raw share of cells in G2: higher = larger share of cells with G2 DNA content
- Hit rule: 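Active siRNAs have a G2 robust z of 5 or more median absolute deviations over the median, which in these data means about 38% or higher of GMNN control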
This is a random part of about 59,000 reagents tested. Over the whole deposit, about 1,550 (2.6%) were called active. 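G2 share is only a proxy for re-replication; each gene was hit by three separate siRNAs, and active genes were retested.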 The raw values are shown without normalisation. The record does not give: the amount of reagent.

gene,PubChem SID,G2 robust z-score,"G2 cells, % of GMNN control",raw share of cells in G2 (%),outcome
HSPA4,SID160775384,2.19,18.4,10.8,inactive
HSPA4,SID160775385,0.331,5.3,7.33,inactive
HSPA4,SID160775386,-0.0682,2.49,4.01,inactive
CACNB3,SID160735488,0.198,4.36,6.87,inactive
CACNB3,SID160735499,0.791,8.53,7.67,inactive
CACNB3,SID160735509,-0.163,1.82,5.09,inactive
HCN1,SID160765093,-0.47,-0.338,5.17,inactive
HCN1,SID160765094,6.55,49,21.4,active
HCN1,SID160765095,-0.693,-1.91,3.63,inactive
TOR1AIP2,SID160747536,5.11,38.9,21.5,active
TOR1AIP2,SID160747537,-0.664,-1.7,3.85,inactive
TOR1AIP2,SID160747538,-0.331,0.642,2.87,inactive
TOR1AIP2,SID160760056,0.0635,3.41,4.83,inactive
TOR1AIP2,SID160760057,-0.92,-3.51,1.78,inactive
TOR1AIP2,SID160760058,0.427,5.97,4.65,inactive
SAPCD1,SID160767213,0.232,4.6,5.48,inactive
SAPCD1,SID160767214,-0.0948,2.3,4.43,inactive
SAPCD1,SID160767215,2.87,23.2,14.4,inactive
KLHL3,SID160737830,-0.00369,2.94,7.5,inactive
KLHL3,SID160737831,-0.185,1.67,4.74,inactive
KLHL3,SID160737832,-0.23,1.35,4.43,inactive
TMEM26,SID160732686,-0.406,0.114,3.23,inactive
TMEM26,SID160761317,1.29,12,7.93,inactive
TMEM26,SID160761318,-0.0518,2.6,4.02,inactive
PPP5C,SID160714843,2.61,21.4,11.7,inactive
PPP5C,SID160714844,-0.746,-2.28,3.62,inactive
PPP5C,SID160714845,0.132,3.89,4.67,inactive
ROBO3,SID160747595,0.32,5.22,6.12,inactive
ROBO3,SID160747596,-1.3,-6.18,3.09,inactive
ROBO3,SID160747597,0.112,3.75,5.67,inactive
MBD1,SID160777008,-0.772,-2.47,4.49,inactive
MBD1,SID160777009,-1.01,-4.15,3.76,inactive
MBD1,SID160777010,-1.23,-5.66,1.33,inactive
COMT,SID160752244,-1.07,-4.54,4.18,inactive
COMT,SID160753286,2.06,17.4,11.5,inactive
COMT,SID160754343,-0.421,0.00584,3.68,inactive
MED23,SID160722205,1.17,11.2,10.4,inactive
MED23,SID160722206,-0.847,-2.99,2.69,inactive
MED23,SID160722208,-1.14,-5.06,1.56,inactive
SUSD2P1,SID160727099,-0.767,-2.43,2.29,inactive
SUSD2P1,SID160772892,0.962,9.73,7.92,inactive
SUSD2P1,SID160772893,-0.598,-1.24,2.8,inactive
FOXC1,SID160730812,-0.885,-3.26,4.05,inactive
FOXC1,SID160765996,0.0949,3.64,6.65,inactive
FOXC1,SID160766004,-0.593,-1.2,3.23,inactive
ABHD14A,SID160737140,2.16,18.1,11.2,inactive
ABHD14A,SID160737141,-0.0417,2.67,5.1,inactive
ABHD14A,SID160737142,-0.58,-1.11,2.91,inactive
BEX2,SID160735113,-0.204,1.53,2.87,inactive
BEX2,SID160752637,0.312,5.16,5.82,inactive
BEX2,SID160752638,0.0697,3.46,4.48,inactive
CRYBG1,SID160715937,-0.391,0.215,5.4,inactive
CRYBG1,SID160715947,0.439,6.06,6.31,inactive
CRYBG1,SID160715958,0.449,6.12,5.92,inactive
OR5D14,SID160732682,0.196,4.35,4.58,inactive
OR5D14,SID160761256,0.896,9.27,6.94,inactive
OR5D14,SID160761257,2.42,20,9.97,inactive
PI4KA,SID160731419,0.615,7.29,7.87,inactive
PI4KA,SID160775501,2.25,18.8,11.8,inactive
PI4KA,SID160775522,1.84,15.9,9.65,inactive
NPIPB2,SID160773351,-0.538,-0.821,3.77,inactive
NPIPB2,SID160773352,-0.674,-1.77,2.62,inactive
NPIPB2,SID160773353,1.6,14.2,8.36,inactive
ZNRF4,SID160724864,2.42,20,9.09,inactive
ZNRF4,SID160732554,0.558,6.89,5.47,inactive
ZNRF4,SID160758636,0.554,6.87,6.13,inactive
GPR173,SID160772381,7.27,54.1,25.2,active
GPR173,SID160772467,-1.18,-5.34,2.65,inactive
GPR173,SID160772553,-1.12,-4.91,1.76,inactive

Part of the list above in another layout.
MBD1 [SID160777009]: G2 robust z-score = -1.01; G2 cells, % of GMNN control = -4.15; raw share of cells in G2 (%) = 3.76; outcome = inactive
MBD1 [SID160777010]: G2 robust z-score = -1.23; G2 cells, % of GMNN control = -5.66; raw share of cells in G2 (%) = 1.33; outcome = inactive
COMT [SID160752244]: G2 robust z-score = -1.07; G2 cells, % of GMNN control = -4.54; raw share of cells in G2 (%) = 4.18; outcome = inactive
COMT [SID160753286]: G2 robust z-score = 2.06; G2 cells, % of GMNN control = 17.4; raw share of cells in G2 (%) = 11.5; outcome = inactive
COMT [SID160754343]: G2 robust z-score = -0.421; G2 cells, % of GMNN control = 0.00584; raw share of cells in G2 (%) = 3.68; outcome = inactive
MED23 [SID160722205]: G2 robust z-score = 1.17; G2 cells, % of GMNN control = 11.2; raw share of cells in G2 (%) = 10.4; outcome = inactive
MED23 [SID160722206]: G2 robust z-score = -0.847; G2 cells, % of GMNN control = -2.99; raw share of cells in G2 (%) = 2.69; outcome = inactive
